Reference: publication PMC7862700
The list shows a part of the results, in another mix than the full data. At the low end of the ranking, values are background and their order means little.

The chains behind the UniProt entries cited, without tags or fusion partners. Where a name states a change or a piece, a line headed by the entry shows the natural chain unless it says otherwise.
UniProt O43186: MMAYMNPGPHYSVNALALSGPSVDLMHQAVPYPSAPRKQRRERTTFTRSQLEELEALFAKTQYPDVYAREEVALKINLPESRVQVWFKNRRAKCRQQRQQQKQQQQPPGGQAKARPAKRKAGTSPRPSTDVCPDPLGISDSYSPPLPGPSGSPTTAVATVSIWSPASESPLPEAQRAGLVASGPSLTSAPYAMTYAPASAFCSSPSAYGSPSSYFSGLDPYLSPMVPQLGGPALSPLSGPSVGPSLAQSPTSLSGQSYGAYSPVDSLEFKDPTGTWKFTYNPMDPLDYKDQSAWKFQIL

What follows are sequences tested against CRX (UniProt O43186) (assay: DAPPL (digital affinity profiling via proximity ligation, sequencing)). Conditions: 10 mM Tris-HCl pH 7.5, 50 mM NaCl, 1 mM DTT, 4% glycerol, room temperature, 30 min; GST-TFs on glutathione beads, 16-mer random dsDNA library, 0.1% …; high values mean tight binding; double strand, one strand shown; scale: fold enrichment (6-mer frequency, TF over GST control).

Row | Sequence | binding signal
1 | AACCTG | 1.1
2 | AACACG | 0.928
3 | TGAACA | 1.06
4 | ACCATT | 0.97
5 | GAAAAA | 0.945
6 | CCGCAG | 0.907
7 | CCCATC | 0.914
8 | TGTCTG | 0.866
9 | CCAAAT | 1.18
10 | ATGCTG | 0.966
11 | ATCTTG | 1.54
12 | GCGGAA | 0.466
13 | TACCGG | 0.924
14 | CGGTAT | 0.822
15 | TACCTG | 1.11
16 | TCAAGG | 1.09
17 | CATATC | 0.944
18 | TGCATT | 1.32
19 | GCTTAC | 2.01
20 | GCAACT | 0.878

Row | Sequence | binding signal
21 | GAATTG | 0.942
22 | ACGAAT | 1.21
23 | TCTGTA | 1.34
24 | AAAGTA | 1.35
25 | ACTCGT | 1.08
26 | CCTTCG | 1.28
27 | TATTAG | 1.94
28 | GCGACC | 0.771
29 | AACACT | 1.14
30 | TCATGT | 0.953
31 | CCTCAG | 1.15
32 | CACACA | 0.813
33 | GGAACT | 0.937
34 | CATCAT | 0.955
35 | GAAAAC | 0.811
36 | TGTCAC | 0.84
37 | ACTATT | 1.28
38 | TCACCA | 1.04
39 | TGATTT | 1.35
40 | TTATTC | 2.37

Reformatted: results already given
GCTTAC
  binding signal: 2.01
GCAACT
  binding signal: 0.878
